Results taken from paper PMC8356473.

Biological target: T1, FLAG-SH3BGRL3 (SH3 Domain Binding Glutamate Rich Protein Like 3), expressed in SKBR3 cells (human) (UniProt Q9H299)
T1 sequence: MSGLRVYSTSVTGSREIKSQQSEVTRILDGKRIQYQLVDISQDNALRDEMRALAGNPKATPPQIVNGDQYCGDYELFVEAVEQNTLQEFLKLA
Assay: affinity purification with mass spectrometry; lysates of SKBR3 cells transfected with FLAG-SH3BGRL3 or empty vector on anti-FLAG-coupled resin; eluted proteins on SDS-PAGE; three bands absent from the control cut and identified by nanoLC-ESI-LIT-MS/MS

- binding: binds
B1: adseverin (also known as scinderin), endogenous in SKBR3 cells (protein, UniProt Q9Y6U3 1-715)
chain: MARELYHEEFARAGKQAGLQVWRIEKLELVPVPQSAHGDFYVGDAYLVLHTAKTSRGFTYHLHFWLGKECSQDESTAAAIFTVQMDDYLGGKPVQNRELQGYESNDFVSYFKGGLKYKAGGVASGLNHVLTNDLTAKRLLHVKGRRVVRATEVPLSWDSFNKGDCFIIDLGTEIYQWCGSSCNKYERLKANQVATGIRYNERKGRSELIVVEEGSEPSELIKVLGEKPELPDGGDDDDIIADISNRKMAKLYMVSDASGSMRVTVVAEENPFSMAMLLSEECFILDHGAAKQIFVWKGKDANPQERKAAMKTAEEFLQQMNYSKNTQIQVLPEGGETPIFKQFFKDWRDKDQSDGFGKVYVTEKVAQIKQIPFDASKLHSSPQMAAQHNMVDDGSGKVEIWRVENNGRIQVDQNSYGEFYGGDCYIILYTYPRGQIIYTWQGANATRDELTTSAFLTVQLDRSLGGQAVQIRVSQGKEPVHLLSLFKDKPLIIYKNGTSKKGGQAPAPPTRLFQVRRNLASITRIVEVDVDANSLNSNDVFVLKLPQNSGYIWVGKGASQEEEKGAEYVASVLKCKTLRIQEGEEPEEFWNSLGGKKDYQTSPLLETQAEDHPPRLYGCSNKTGRFVIEEIPGEFTQDDLAEDDVMLLDAWEQIFIWIGKDANEVEKKESLKSAKMYLETDPSGRDKRTPIVIIKQGHEPPTFTGWFLGWDSSKW

These are yes or no findings as the source states them, for the method shown. In cells and extracts the contact can be indirect. A yes stands for co-enrichment or nearness to the bait. Other partners may have been found. Sequences can lack the tags named with a protein.
